# Screening data, single-dose tests

The filed quantity is “Percent Effect” (%).
The record does not define 0% and 100%; most values in the screen are far below 50% and negative numbers occur (in some assays of this library far below -100).
This is an unselected part of the compounds tested.
Two or more numbers in one place are separate tests of the same structure; such repeats can differ widely.

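Phenotypic screen: M. tuberculosis growth, cholesterol and DPPC medium, 4 days; the read-out is not stated. Compounds at 50 µM. Higher reads as more growth inhibition (inferred: compounds with an IC50 in retests scored well above the rest). Of about 69,000 compounds tested this way, about 370 (0.54%) reached 50% or more in at least one test.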

| SMILES | effect |
|---|---|
| `Cc1[nH]c2ccc(CNc3cc(C(=O)NC(C)C)ccn3)cc2c1C` | 21.66% |
| `COc1ccccc1OCCNS(=O)(=O)N1CCOCC1` | 1.764% & -6.69% |
| `Cn1cc(CN2CCc3ncnc(C4CCOC4)c3CC2)cn1` (centres undefined) | 6.06% |
| `O=C(Cc1cccc(O)c1)NCCCNC(=O)c1cccc(F)c1` | 19.83% |
| `CSc1cc2c(cc1NC(=O)NCC(C)(C)C(N)=O)OCCO2` | -1.906% & -10.73% |
| `O=C(c1cccnc1)N1CCC2(CC1)CCN(Cc1ccccn1)C2=O` | -23.81% |
| `CC1CCN(C(=O)C2CCN(c3ccc(Cl)cc3C#N)CC2)CC1` | 12.17% |
| `COCCN(C/C=C/c1ccccc1)Cc1nccs1` | -22.6% |
| `COc1ccc(C(=O)NCCNC(=O)c2cncnc2C)cc1` | -16.91% & 1.896% |
| `[H][C@]12CCN(S(=O)(=O)c3ccc(C)cc3)[C@@]1([H])[C@@H](NC(=O)c1[nH]ncc1Br)C2` | -2.818% & 0.2793% |
| `O=C(O)C(F)(F)F.[H][C@]12CCN(S(=O)(=O)c3cccs3)C[C@@]1([H])OCCN(CC)C2` | 6.114% |
| `Cc1ccc(CNC2CCN(CCc3ccncc3)CC2)cc1C` | 6.847% & -1.48% |
| `Cc1ccc(NC2CCN(C(=O)COCC3CC3)CC2)nn1` | -8.463% |
| `COc1ccc(N2CCC(N(C)C(=O)Nc3ccncc3)CC2)cc1` | 1.726% & 7.709% |
| `O=C(N[C@@H]1CCN(c2nccc3ccccc23)C[C@H]1O)c1cnccn1` | 3.97% |
| `COc1ccc(Cn2cc(C(=O)N(C)Cc3cnccn3)nn2)cc1` | 12.85% |
| `[H][C@]12CC[C@]([H])(CN(C(=O)N(C)C)C1)N(C(=O)c1cccc(N(C)C)c1)C2` | 9.603% |
| `CC(C)S(=O)(=O)N1CCC(c2cc3n(n2)[C@@H](C(F)(F)F)C[C@@H](C)N3)CC1` | -6.953% |
| `CCn1cc(S(=O)(=O)Nc2cccnc2-n2cccn2)nc1C` | 10.56% |
| `Cc1ncc2c(n1)CN(Cc1nc(C)c(C)o1)CC2` | -2.006% |
| `O=C(CNC(=O)c1ccc(Cl)cc1)Nc1nccs1` | -21.8% |
| `O=S1(=O)CCCN(Cc2ccccc2OCC(F)(F)F)CC1` | -18.82% |
| `Cc1n[nH]c(C)c1CCN(C)C(=O)c1ccc(CN2CCCCC2)cc1` | -26.15% |
| `CC(=O)NC1CCN(c2cc(C3CCNCC3)ccn2)CC1.Cl.Cl` | 12.73% |
| `NC(=O)c1cccc(CS(=O)(=O)CC(O)Cn2cccn2)c1` (centres undefined) | -13.07% |
| `CC(C)c1nc(C2CCCN(C(=O)c3ccc(N(C)C)nn3)C2)no1` (centres undefined) | -10.57% |
| `O=C(c1cccnc1N1CCCCC1)N1CCCC(n2ccnc2)C1` (centres undefined) | 13.61% |
| `Cc1csc(Nc2nccnc2C2CCCN2C(=O)C(C)C)n1` (centres undefined) | -25.43% |
| `COc1cc(C2(C(=O)NC3CCN(CC4CC4)CC3)CC2)ccc1C` | 3.022% |
| `COc1ccccc1CNC(=O)Cn1ncc2c1c(C)nn2C` | 2.14% |
| `Cc1noc(C)c1CNC(=O)N1CCN(Cc2cscn2)CC1` | 2.698% |
| `CCS(=O)(=O)CCSc1ccc(Cl)cc1` | -29.14% & 0.8763% |
| `CCCN(C(=O)c1cnns1)C1CCCN(Cc2ccccc2)C1` (centres undefined) | -14.99% |
| `COCCN1CCN(CC(=O)N(C)Cc2ccc(C)o2)CC1C` (centres undefined) | 4.09% |
| `Cc1cccc(CNC(=O)c2cccnc2N)c1` | -33.17% |
| `COc1ccccc1C1(CNc2snc(Cl)c2C#N)CCCC1` | -7.427% |
| `O=C(Nc1nc2c(s1)CCC2)c1cccnc1N1CCOCC1` | 4.142% |
| `CCn1cnnc1C1CCN(C(=O)c2cc3c(s2)CCC3)CC1` | 6.886% |
| `Cc1nc(C2(NCc3cccc(F)c3F)CCCCC2)no1` | 8.172% |
| `Cc1nc2c(c(NC3CC3)n1)CCN(C(=O)CCc1cccnc1)CC2` | -4.053% |
| `CCNC(=O)CN1CCOC(c2ccccc2C(F)(F)F)C1` (centres undefined) | -17.21% |
| `CNC(=O)CC1CCN(Cc2nc(-c3ccc(SC)cc3)oc2C)CC1` | 11.4% |
| `O[C@H]1CN(Cc2c[nH]nc2-c2ccccc2)CC[C@@]12CCCO2` | -17.06% |
| `Cc1nc(CN2CCOCC3(CCN(c4cccnc4)CC3)C2)cs1.O=C(O)C(F)(F)F.O=C(O)C(F)(F)F` | -11.35% & 6.363% |
| `COCCC1(CO)CCCN(Cc2ccc(C(F)(F)F)nc2)C1` (centres undefined) | 14.49% & 5.568% |
| `CCc1nnc2n1CCN(CC(=O)Nc1cc(C(C)(C)C)nn1C)C2` | -6.755% |
| `FC(F)Oc1ccc(NCc2nc(C3CC3)no2)c(OC(F)F)c1` | 35.89% |
| `O=C(CNc1cccc(S(=O)(=O)C(F)F)c1)Nc1ccccc1` | -3.867% |
| `c1ccc2c(c1)CCN(c1nc(-c3ccncc3)nc3c1CCNC3)C2` | 50.62% & 57.73% |
| `O=C1CCNc2ncc(-c3ccc(Cl)cc3)cc2CN1C1CC1` | 7.986% |
| `COCCc1ncc(CN2CCC(Oc3ccccc3C)CC2)cn1` | -0.6671% |
| `CCc1n[nH]c(C2CN(Cc3csc(C4CCCC4)n3)CCO2)n1` (centres undefined) | -22.72% |
| `CC(C)COCCC(=O)Nc1cccnc1-n1cncn1` | 16.75% |
| `CCOc1ccc(Cl)cc1CCNC(=O)Cn1ccccc1=O` | 9.182% |
| `CC/N=c1\nc(NCC)nc2n1C(O)(Nc1cc(C)ccc1C)CS2` (centres undefined) | 1.4% |
| `Cc1cn[nH]c1C1CCCCN1C(=O)CCc1ccc(F)cc1` (centres undefined) | -2.594% |
| `Cc1cnn(C(C)C2CC2)c1NC(=O)c1ccco1` (centres undefined) | 14.18% |
| `CC(C)N1CC[C@@](C)(O)[C@H](n2ccc(=O)[nH]c2=O)C1` | -4.399% & -2.483% |
| `Cc1cc2c(=O)n3c(nc2s1)CCN(C(=O)c1ccncc1)CC3` | -9.778% |
| `O=C(O)C(F)(F)F.[H][C@@]12CCN(Cc3ccsc3)[C@]1([H])CC[C@H](C(=O)N1CCOCC1)O2` | -30.37% |
| `Cn1cc2c(n1)C(CNC1CCOCC1)OCC2.O=C(O)C(F)(F)F` (centres undefined) | -1.478% |
| `COc1ccc(C(=O)N(Cc2cnn(C)c2)C(C)C)cc1OC(F)F` | 4.424% |
| `O=C(c1ccccc1)N1CCC2(CC1)CC(Oc1ccccc1)CO2` (centres undefined) | 4.906% |

Once more, the final 5:

For Cc1cc2c(=O)n3c(nc2s1)CCN(C(=O)c1ccncc1)CC3 the result was -9.778%.
For O=C(O)C(F)(F)F.[H][C@@]12CCN(Cc3ccsc3)[C@]1([H])CC[C@H](C(=O)N1CCOCC1)O2 the result was -30.37%.
For Cn1cc2c(n1)C(CNC1CCOCC1)OCC2.O=C(O)C(F)(F)F (centres undefined) the result was -1.478%.
For COc1ccc(C(=O)N(Cc2cnn(C)c2)C(C)C)cc1OC(F)F the result was 4.424%.
For O=C(c1ccccc1)N1CCC2(CC1)CC(Oc1ccccc1)CO2 (centres undefined) the result was 4.906%.

From ChEMBL document CHEMBL3988442, “University of Dundee, Small-Polar-MMV Screening Library” (2021).